Measured values reported in patent publication US12618835B2, “Multiplex microelectrode array for detection of proteases as biomarkers” (Kansas State University Research Foundation, priority 2021, dated 2026).
The name of at least one read-out is uncertain.

Molecular target: T1, recombinant human cathepsin B (rhCB) (Homo sapiens, UniProt P07858)
T1 construct: purchased R&D Systems Inc. (Minneapolis, MN)
Experiment: Electrochemical (ACV) proteolysis of peptide-Fc on Au MEA by activated rhCB in different buffers, Example 3
Type: biochemical
Settings: slope of 1/τ vs activated rhCB 0 to 1.0 nM, 0.5×PB pH=7.4
Description: Gold MEA Functionalization. The diced Au MEA chip was sonicated in acetone for 5 min to remove the photoresist protection layer, followed by rinsing with methanol and subsequently with isopropanol for 30 seconds. The Au MEA was then rinsed with deionized water and blow-dried with N2. Prior to use, the Au MEA chip was mounted in a home-made electrochemical cell described in our previous report and electrochemically cleaned by cycling voltammetry (CV) between −0.60 to 0.70 V in 0.10 M phosphate buffer (0.038 M NaH2PO4 and 0.061 M Na2HPO4, pH=7.4) vs. a mercury/mercurous sulfate reference electrode (MSE) filled with a saturated K2SO4 solution (CH Instruments, Austin, TX). The cleaned Au MEA was then rinsed with deionized water and blow-dried with N2. All electrochemical protease detection measurements in this study used an in-house synthesized hexapeptide H-15 attached with a ferrocene (Fc) redox tag, as the substrate (referred to as “peptide-Fc” in this study). […]
Electrochemical Experiments. […] Fc signal on the Au surface was detected by alternating current voltammetry (ACV) with an AC frequency of 300 Hz and a voltage amplitude of 100 mV on a DC ramp from −0.45 V to 0.20 V vs. MSE. […]

H2N-(CH2)4-CO-Pro-Leu-Ala-Phe-Val-Ala-NH-CH2-Fc (PLAFVA; N-terminal aminopentanoyl; C-terminal aminomethylferrocene; Synthetic substrate peptide) [Peptide H-15]
specificity constant kcat/KM: (3.89±0.28)×10^6 M^−1s^−1
